Experimental data: PubChem BioAssay AID540276 (National Center for Advancing Translational Sciences (NCATS), 2011)
Where “and” joins values, the source holds several entries; their conditions need not be identical. Equal entries are not always repeated. Screen size: about 300,000 compounds; about 5,400 (1.8%) were called active. This list was built around the results that the source calls inconclusive (neither active nor inactive); the mix of calls is not that of the screen. Calls come from the whole dose curve; tested in HEK293 cells. Potencies of inconclusive entries are doubtful fits and often do not repeat.

Assay: qHTS for inhibitors of binding or entry into cells for Marburg Virus
Settings: Marburg virus pseudotyped entry inhibition, cell reporter; series mostly up to 37.8 µM
Potency is the fitted concentration of half-maximal effect.

Q: Which Potency does the source give for COc1ccc(-c2cc(=O)c3cc(OCC(=O)OC(C)C)ccc3o2)cc1 here?
A: inactive

Q: Which Potency does the source give for CCOC(=O)c1c(C)nc2c(c1-c1ccc(Cl)cc1)C(=O)CC(C)(C)C2 here?
A: inconclusive: 2.51 µM [inhibitor, partial curve, poor fit]

Q: With CCCNC(=O)C(=O)Nc1ccc2c(c1)N(S(=O)(=O)c1cccs1)CCC2 as the compound, how does the Potency read?
A: inconclusive: 2 µM [inhibitor, partial curve, poor fit]

Q: With CC(=O)c1ccc(NC(=O)Nc2ccc3c(c2)nc(C)n3C)cc1 as the compound, how does the Potency read?
A: inconclusive: 3.98 µM [activator, full curve, poor fit]

Q: For CCOc1ccc(CCn2c(-c3ccco3)nc3ccccc3c2=O)cc1OCC, which Potency is on record?
A: active: 2.31 µM

Q: With Cc1cccc(NC(=S)/N=C(\N)Nc2nc(C)c3cc(C)ccc3n2)c1 as the compound, how does the Potency read?
A: inconclusive: 15.8 µM [inhibitor, partial curve, poor fit]

Q: For CCc1cc(=O)oc2cc(C)cc(OC(C)C(=O)NC3CCN(Cc4ccccc4)CC3)c12 (stereo not given), which Potency is on record?
A: inconclusive: 6.31 µM [inhibitor, partial curve, poor fit]

Q: With COC(COC(N)=O)C1=C(N2CC2)C(=O)C(C)=C(N2CC2)C1=O (stereo not given) as the compound, how does the Potency read?
A: inconclusive: 0.562 µM [inhibitor, full curve, poor fit]

Q: For CC(C)CN1CCN(Cc2ccc3ncccc3c2)CC1CCO (stereo not given), which Potency is on record?
A: inactive

Q: With Cc1ccc(-c2nc(CN(C)C(C3CC3)C3CC3)c(C)o2)cc1 as the compound, how does the Potency read?
A: inconclusive: 2.82 µM [inhibitor, full curve]

Q: With CC(=O)Nc1ccc(N=NN2CCOCC2)cc1 as the compound, how does the Potency read?
A: inconclusive: 35.5 µM [activator, partial curve, poor fit]

Q: With CCCOC(=O)C1C2C=CC(C3CC23)C1C(=O)OCC(=O)c1ccccc1 (stereo not given) as the compound, how does the Potency read?
A: inconclusive: 23.1 µM [inhibitor, single point]

Q: For COc1cc(NC(=O)CN2c3ccccc3CC2C)cc(OC)c1OC (stereo not given), which Potency is on record?
A: inconclusive: 10 µM [inhibitor, single point]

Q: For CCOc1ccc(-n2cnc3sc4c(c3c2=O)CCCC4)cc1, which Potency is on record?
A: inconclusive: 12.6 µM [activator, single point]

Q: With O=C(NC(=S)NC1CCCCC1)c1ccc(F)cc1 as the compound, how does the Potency read?
A: inconclusive: 3.16 µM [activator, partial curve, poor fit]

Q: For O=C(NC1CCCCC1)C(c1cccs1)N(CCCN1CCOCC1)C(=O)c1ccc(-c2ccccc2)[nH]1 (stereo not given), which Potency is on record?
A: inconclusive: 7.94 µM [inhibitor, partial curve, poor fit]

Q: With COc1ccc(N2CCN(C(CNC(=O)C3CCCCC3)c3ccco3)CC2)cc1 (stereo not given) as the compound, how does the Potency read?
A: inactive

Q: Which Potency does the source give for COc1ccc(NC(=O)C(OC)c2ccccc2)cc1Cl (stereo not given) here?
A: inconclusive: 0.316 µM [inhibitor, full curve, poor fit]

Q: For c1ccc(Cn2nnnc2C(c2cccs2)N2CCSCC2)cc1 (stereo not given), which Potency is on record?
A: inconclusive: 3.26 µM [activator, single point]

Q: For Cc1nc(NC(=O)c2ccc(Br)s2)sc1C(=O)N(C)C, which Potency is on record?
A: inconclusive: 23.1 µM [activator, single point]

Q: With CCOc1ccc(-c2nnc(-c3ccco3)o2)cc1 as the compound, how does the Potency read?
A: active: 6.51 µM

Q: Which Potency does the source give for CC(/C=C/c1ccccc1)=N\NC(=O)c1cc(C)nc2ccccc12 here?
A: inconclusive: 15.8 µM [inhibitor, single point]

Q: For Clc1ccc(COn2c(-c3ccc(Cl)cc3Cl)nc3ncccc32)cc1, which Potency is on record?
A: inconclusive: 35.5 µM [inhibitor, single point]

Q: With CCN(CCCC(=O)c1ccc(F)cc1)CCc1ccccc1 as the compound, how does the Potency read?
A: active: 3.55 µM

Q: For O=C(NNc1nc(-c2ccc(F)cc2)cs1)c1ccccc1, which Potency is on record?
A: inconclusive: 10 µM [inhibitor, partial curve, poor fit]

Q: For C=CCOc1ccc(C2C(C#N)=C(N)N(Nc3ccccc3)C3=C2C(=O)CC(C)(C)C3)cc1OC (stereo not given), which Potency is on record?
A: inconclusive: 11.2 µM [inhibitor, partial curve, poor fit]

Q: For O=C(CCCC1=NS(=O)(=O)c2ccccc2N1)OCc1ccc(Cl)cc1, which Potency is on record?
A: inactive

Q: Which Potency does the source give for CCN(C(=O)c1ccc(C(C)(C)C)cc1)c1nnc(Cn2nnc3ccccc32)s1 here?
A: inconclusive: 7.94 µM [inhibitor, partial curve, poor fit]

Q: Which Potency does the source give for CCN(CC)c1cnn(C/C(=N\OC)c2ccc(Cl)cc2)c(=O)c1Br here?
A: inconclusive: 31.6 µM [inhibitor, single point]

Q: With COc1ccc(OCc2nc3ccccc3[nH]2)cc1 as the compound, how does the Potency read?
A: inconclusive: 11.6 µM [inhibitor, partial curve, poor fit]

Q: With CCOc1ccc2nc(N3CCCC(C(=O)Nc4ccc(OC)c(Cl)c4)C3)sc2c1 (stereo not given) as the compound, how does the Potency read?
A: inconclusive: 11.2 µM [activator, partial curve, poor fit]

Q: Which Potency does the source give for CC(C)=CC(=O)OCC(=O)Nc1cccc([N+](=O)[O-])c1 here?
A: inactive

Q: Which Potency does the source give for CCN1CCN(C(c2ccccc2OC)c2nnnn2C2CCCCC2)CC1 (stereo not given) here?
A: inconclusive: 22.4 µM [inhibitor, single point]

Q: For CCCCCSc1nc(O)cc(=O)[nH]1, which Potency is on record?
A: inconclusive: 12.6 µM [activator, single point]

Q: For O=C(c1ccc(-c2cccc([N+](=O)[O-])c2)o1)N1CCN(c2ccc([N+](=O)[O-])cc2)CC1, which Potency is on record?
A: inconclusive: 6.31 µM [inhibitor, partial curve]

Q: With CC(C)N(C(=O)CSc1nnc(Cc2csc(Nc3ccccc3)n2)o1)C(C)C as the compound, how does the Potency read?
A: inconclusive: 22.4 µM [inhibitor, single point]

Q: Which Potency does the source give for CCCCC[C@H](O)CCCC(=O)O here?
A: inconclusive: 31.6 µM [inhibitor, full curve, poor fit]

Q: Which Potency does the source give for COc1ccc(C(=O)C2CCCN(C(=O)CCC3=NNC(=O)CC3)C2)c(C)c1 (stereo not given) here?
A: inactive

Q: For CCCCOc1ccc(CC2C(=O)N(C)C(=O)N(C)C2=O)cc1, which Potency is on record?
A: inconclusive: 29.1 µM [activator, single point]

Q: Which Potency does the source give for CC(=O)NCCc1ccc(C(=O)COC(=O)c2cc(C)oc2C)cc1 here?
A: inconclusive: 6.31 µM [activator, single point]

Q: With CC(Sc1nc2ccc(C(=O)c3ccccc3)cc2[nH]1)C(=O)O (stereo not given) as the compound, how does the Potency read?
A: inconclusive: 0.891 µM [inhibitor, single point]

Q: For NN=C(c1ccccc1)c1ccccc1, which Potency is on record?
A: inactive

Q: For Cn1c(=O)c2c(nc(SCCN3CCOCC3)n2Cc2cccc3ccccc23)n(C)c1=O, which Potency is on record?
A: inconclusive: 1.83 µM [inhibitor, partial curve, poor fit]

Q: Which Potency does the source give for NS(=O)(=O)c1ccc(NCC2COc3ccccc3O2)c([N+](=O)[O-])c1 (stereo not given) here?
A: inconclusive: 7.08 µM [activator, partial curve, poor fit]

Q: For O=C(COC(=O)c1cccc(S(=O)(=O)NCc2ccccc2)c1)Nc1ccccc1OC(F)F, which Potency is on record?
A: inactive

Q: Which Potency does the source give for Cc1ccc(-c2nnn(CC(=O)N(Cc3ccccc3)C(C(=O)NC(C)(C)C)c3ccncc3)n2)o1 (stereo not given) here?
A: inactive

Q: For COc1ccc(NS(=O)(=O)c2cccc(C(=O)NCC(c3ccccc3OC)N3CCCC3)c2)cc1 (stereo not given), which Potency is on record?
A: inconclusive: 20 µM [inhibitor, single point]

Q: Which Potency does the source give for COc1cc(C2c3cc4c(cc3CC3COC(=O)N32)OCO4)cc(OC)c1OC (stereo not given) here?
A: inconclusive: 0.631 µM [inhibitor, full curve]

Q: With CC1=C(C(=O)OC2CCCCCC2)C(c2cccc(F)c2F)CC(=O)N1 (stereo not given) as the compound, how does the Potency read?
A: inactive

Q: Which Potency does the source give for CC(C)(CO)NCc1c(OCc2ccc(Cl)cc2)ccc2ccccc12 here?
A: inconclusive: 3.16 µM [inhibitor, full curve, poor fit]

Q: For Cc1ccc2nc(Cc3ccc(N)cc3)oc2c1, which Potency is on record?
A: inconclusive: 4.47 µM [activator, full curve, poor fit]

Q: Which Potency does the source give for O=C(Nc1cc(SCCO)cc([N+](=O)[O-])c1)c1ccco1 here?
A: inconclusive: 5.62 µM [activator, single point]

Q: For O=C(O)C1=CCCN(CCON=C(c2ccccc2)c2ccccc2)C1, which Potency is on record?
A: inconclusive: 6.51 µM [activator, single point] and inconclusive: 5.01 µM [inhibitor, full curve, poor fit]

Q: Which Potency does the source give for O=C(COc1ccccc1)Nc1ccc(NC(=O)c2ccco2)cc1 here?
A: inactive

Q: With COc1ccc(C(=O)CN2C(=O)c3ccccc3S2(=O)=O)cc1 as the compound, how does the Potency read?
A: inconclusive: 1 µM [inhibitor, full curve, poor fit]

Q: For O=c1[nH]c(CCl)nc2cc(-c3ccc(Cl)cc3)sc12, which Potency is on record?
A: inconclusive: 7.94 µM [inhibitor, partial curve, poor fit]

Q: With O=C(O)c1ccc(C(=O)c2ccc3c(c2)C(=O)N(Cc2ccco2)C3=O)cc1 as the compound, how does the Potency read?
A: inactive

Q: With CCC1CCCCN1C(=O)CSc1nc(-c2ccc(OC)c(OC)c2)cc(C(F)(F)F)n1 (stereo not given) as the compound, how does the Potency read?
A: inconclusive: 35.5 µM [inhibitor, single point]

Q: For Cc1ccc2cc(C3C(C#N)=C(N)Oc4c3ccc3cccnc43)c(=O)[nH]c2c1 (stereo not given), which Potency is on record?
A: inconclusive: 25.9 µM [inhibitor, single point]

Q: Which Potency does the source give for Cc1ccc(C)c(-n2cc(CNC(C)Cn3cncn3)c(-c3ccccc3)n2)c1 (stereo not given) here?
A: inactive

Q: With O=c1oc2ccc3ccccc3c2cc1-c1nnc(-c2ccccc2)o1 as the compound, how does the Potency read?
A: inactive

Q: With Cc1nc2ccccc2c(=O)n1/N=C/c1ccc(N(C)C)cc1 as the compound, how does the Potency read?
A: inconclusive: 18.3 µM [activator, partial curve, poor fit]

Q: Which Potency does the source give for CCCCc1cc2c(cc1NC(=O)CN1CCCCC1)OCCO2 here?
A: inconclusive: 35.5 µM [inhibitor, single point]

Q: Which Potency does the source give for COC(=O)c1ccc(N2CCN(C(=O)C3CC3)CC2)c([N+](=O)[O-])c1 here?
A: inconclusive: 15.8 µM [activator, single point]

Q: For CS(=O)(=O)c1ccc(C(=O)OCC(=O)NC23CC4CC(CC(C4)C2)C3)cc1[N+](=O)[O-], which Potency is on record?
A: inconclusive: 0.562 µM [inhibitor, partial curve, poor fit]
